Laboratory results from patent publication US8053415B2 (Washington University in St. Louis, priority 2005, dated 2011).
For some assays here: Strings that start with PEPTIDE1 are HELM notation: dots part the residues, brackets hold end groups and non-standard residues.

How the values were obtained:
[1] = general procedure: Fmoc solid-phase peptide synthesis; Wang resin pre-loaded with Fmoc-Lys-OH; Rink amide MBHA resin (0.4 mmol/g); 2-chlorotrityl resin for cyclic lactam pepti; HBTU/HOBt/DIEA; details: for isolated mass / isolated yield: whole synthesis
[2] = general procedure: Fmoc solid-phase peptide synthesis; Fmoc-Val-2-chlorotrityl resin; HBTU/HOBt/DIEA; details: whole synthesis, scale of the general procedure 25 μmol

Substance	isolated mass ([1]; scale 25 umol)	isolated yield ([1]; scale 25 umol)	further results
Cypate-GRDSPK	8.1 mg	25.6% isolated yield	
H-Lys(Dde)-Arg(Pbf)-Gly-Asp(Obu^t)-Dphe-Val-OH			crude yield [2]: 60%
Cypate-3-GRDSPK (cypate conjugate; (1)..(1) CYPATE-3 DYE ATTACHED; listed as Homo sapiens)	5.2 mg	16.8% isolated yield	
Cyclo[Arg(Pbf)-Gly-Asp(Obu^t)-Dphe-Val-Lys]			cyclisation yield ([1]; cyclisation step): 23%
PEPTIDE1{K.R.G.D.[dF].V}|CHEM1{[Cypate]}$PEPTIDE1,PEPTIDE1,1:R1-6:R2|PEPTIDE1,CHEM1,1:R3-1:R2$$$V2.0			conjugation yield ([1]; conjugation step): 12%
PEPTIDE1{[DOTA].G.R.D.S.P.K}$$$$V2.0			isolated mass ([1]; scale 25-μmol): 9.2 mg; isolated yield ([1]; scale 25-μmol): 35%
Cypate-GRGDPK	6.4 mg	19.4% isolated yield	
